Publication PMC7249048
No constants are given. Whether binding was seen depends on the method and setting. Some entries that bind do so weakly or less than the wild type.

What was measured:
AtBBD2 (Arabidopsis) = molecular target: T1, AtBBD2 (Arabidopsis) (UniProt Q93VH2); experiment: two-hybrid; … system (Clontech); pGBKT7 (GAL4 DNA binding domain) and pGADT7 (GAL4 activation domain) fusions in yeast strain AH109; growth on SD/-L-W-A-H, 30 °C, observed after five days
T1 sequence: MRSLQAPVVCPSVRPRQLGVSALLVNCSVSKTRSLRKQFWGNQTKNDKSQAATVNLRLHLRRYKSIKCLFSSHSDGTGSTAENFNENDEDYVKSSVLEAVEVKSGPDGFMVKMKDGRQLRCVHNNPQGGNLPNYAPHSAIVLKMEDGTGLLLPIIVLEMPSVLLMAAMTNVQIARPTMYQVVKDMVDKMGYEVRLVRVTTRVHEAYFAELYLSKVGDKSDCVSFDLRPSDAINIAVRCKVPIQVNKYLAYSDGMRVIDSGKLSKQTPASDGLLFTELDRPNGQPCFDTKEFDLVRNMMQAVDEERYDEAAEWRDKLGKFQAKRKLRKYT

AtBBD1 (Arabidopsis) = AtBBD1 (Arabidopsis) (UniProt Q9FWS6); experiment: as above

B1: AtBBD1 (enzyme, UniProt Q9FWS6 1-325)
chain: MRSVQAPVVCPAIRPRQVGACASLVNYTGLKPRSQFWGNRTKGVKSQGTTTTITLRLCNKSIKCVFSSHSDGNGSTAENFNENDEEYVNSSVVEAVEVKSGADGFMVKMRDGRQLRCVHNNPQGGHLPDYAPHPAIVLKMEDGTGLLLPIIVLEMPSVLLMAAMTNVQIARPTMYQVVKEMVDKMGYEVRLVRVTKRVHEAYFAQLFLSKVGNASECVSFDLRPSDAINIAVRCKIPIQVNKYLAYSDGMRVIESGKISTPAPASDGLLFTEQDRPNGQACLDTKEFNILSKMMQAVDEERYDEAAEWRDKLGQFRAKRNLRKYT
AtBBD2 (Arabidopsis)
  binding: no binding
AtBBD1 (Arabidopsis)
  binding: binds

B2: AtBBD2 (enzyme, UniProt Q93VH2 1-329)
chain: T1 sequence
AtBBD2 (Arabidopsis)
  binding: binds
